Measurements from patent US20030059771A1, “Compositions and methods related to the Rig tumor suppressor gene and protein” (THE UNITED STATES OF AMERICA, Department of Health and …, priority 2001, published 2003).
Results are given in words; binding and its absence hold for the method and conditions named. In cells and extracts the contact can be indirect. Some binding calls cover weakened binding; strength is not graded here. Sequences can lack the tags named with a protein.

Biological target: HA-Raf-1 (UniProt P04049)
Assay: co-immunoprecipitation from co-transfected HEK-293T cells, anti-Raf-1 IP, anti-FLAG Western blot

B1: FLAG-Rig (protein, not shown: small tags and cut ends)
chain: MPEQSNDYRVVVFGAGGVGKSSLVLRFVKGTFRDTYIPTIEDTYRQVISCDKSVCTLQITDTTGSHQFPAMQRLSISKGHAFILVFSVTSKQSLEELGPIYKLIVQIKGSVEDIPVMLVGNKCDETQREVDTREAQAVAQEWKCAFMETSAKMNYNVKELFQELLTLETRRNMSLNIDGKRSGKQKRTDRVKGKCTLM
**Q.** For B1, which binding is on record?
**A.** binds
